From PMC9098437
These are yes or no findings as the source states them, for the method shown. Binding seen in cells or lysates may run through a third protein. Binding calls can cover weak binding; strength is not graded here. Sequences can lack the tags named with a protein.

Assays:
[1] = target: T1, Atoh1-cYFP (UniProt P48985); assay: split reporter; bimolecular fluorescence complementation of YFP halves in transfected DAOY cells; fluorescence of the cells measured by flow cytometry
T1 sequence: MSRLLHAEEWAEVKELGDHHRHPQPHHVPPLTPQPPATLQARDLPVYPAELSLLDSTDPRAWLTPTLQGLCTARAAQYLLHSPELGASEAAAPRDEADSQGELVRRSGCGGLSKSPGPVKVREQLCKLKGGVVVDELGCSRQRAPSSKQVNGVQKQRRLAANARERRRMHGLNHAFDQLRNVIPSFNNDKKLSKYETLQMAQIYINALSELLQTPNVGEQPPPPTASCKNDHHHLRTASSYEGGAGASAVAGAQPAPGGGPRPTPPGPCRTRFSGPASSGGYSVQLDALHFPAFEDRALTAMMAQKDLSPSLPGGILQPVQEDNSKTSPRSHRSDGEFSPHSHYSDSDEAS

[2] = target: T2, ATOH1-GFP fusion protein (UniProt P48985); assay: co-IP; lysates of transfected HEK-293 T cells (results text: DAOY); ATOH1-GFP captured on GFP-Trap magnetic agarose beads overnight at 4 °C in CoIP lysis buffer (25 mM Tris-HCl pH 7.5, 150 mM NaCl, 1 mM EDTA, 1% NP-40); blots for GFI1, FLAG, GFP; without ethidium bromide
T2 sequence: T1 sequence

| binding [1] | binding [2] | Substance |
| --- | --- | --- |
| binds |  | E47-nYFP (from UniProt P15806-2) |
|  | binds | Flag-tagged E47 (from UniProt P15806-2) |
